# Laboratory results as given in PubChem BioAssay AID1259415 (National Center for Advancing Translational Sciences (NCATS), 2018).
# Screen size: about 410,000 compounds; about 18,000 (4.4%) were called active. This list was built around the results that the source calls inconclusive (neither active nor inactive); the mix of calls is not that of the screen. No stated cut-off is given here; in the data, active means activity change below about -60%; inconclusive means no clear call, values can overlap the other calls; inactive means above about -39%.
# Test: qHTS Assay for inhibitors of the human cytomegalovirus (HCMV)
# Details: HFF cells, HCMV-luciferase reporter, 72 h; at 57.5 µM; stronger effect = lower value
# In short: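 HFF cells seeded 16 h at 37C, treated with compounds, infected with luciferase-reporter HCMV at MOI 1 PFU/cell; luciferase read at 72 h post infection, normalized to buffer-only and Salinomycin controls.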
# On the % scale 0 is the no-effect control and ±100 the full control effect.
row,SMILES,"activity change, negative = inhibition"
1,COc1ccc(C(=O)N2CCN(c3nc4ccccc4o3)CC2)cc1OC,inconclusive: -51%
2,CCOC(=O)c1ccc(NC(=S)NCCCN2CCCC2=O)cc1,inactive: -28.1%
3,C[C@H]1CNC(=O)c2c(C(=O)Nc3ccc(CNC(=O)OC(C)(C)C)cc3)ncn21,inconclusive: -43.5%
4,O=C(NNC1=Nc2cccc3cccc1c23)c1ccc(Br)cc1,active: -61.7%
5,COc1ccc(N(CC(=O)NCc2ccc(Cl)cc2)S(=O)(=O)c2c(C)noc2C)cc1,inconclusive: -49.2%
6,CC(=O)Nc1ccc(N2CCCC(C)C2)c([N+](=O)[O-])c1 (centres undefined),inconclusive: -47.8%
7,CSCCC(c1nnnn1C1CCCCC1)N1CCC(n2c(=O)[nH]c3ccccc32)CC1 (centres undefined),active: -93.2%
8,CC(=O)N1CCN(S(=O)(=O)c2ccc(C)cc2)C1C (centres undefined),inconclusive: -44.1%
9,FC(F)(F)c1ccc(-c2noc(CN3CCCN(C4CCCCC4)CC3)n2)cc1,inactive: 22%
10,CCN(CC)C(=O)c1ccc(NC(=O)CSc2nnnn2-c2cc(OC)ccc2OC)cc1,inconclusive: -54.2%
11,COCCNC(=O)C(c1ccccc1F)N(C(=O)C(=O)NC1CCCC1)C1CCCCC1 (centres undefined),active: -80.4%
12,CS(=O)(=O)c1nc(S(=O)(=O)c2ccc(Cl)cc2)c(N2CCCCCC2)s1,inconclusive: -49.6%
13,COC(=O)c1ccc(OC(=O)c2ccco2)cc1,inactive: 32.4%
14,O=C(CSc1nc2cc(S(=O)(=O)N3CCOCC3)ccc2o1)NC1CCCc2ccccc21 (centres undefined),inactive: -19.2%
15,N/C(=N\OC(=O)CC1CCCCC1)c1cccnc1,inactive: -26.8%
16,Cc1ccc(NC(=O)Cc2nnc(SCC(=O)NC3CCCC3)n2C)cc1C,inconclusive: -54.1%
17,Cc1ccc2c(c1)C(=O)C(=O)N2Cc1ccc(C(F)(F)F)cc1,inconclusive: -59.8%
18,CCOc1ccc2oc(-c3ccccc3)c(C(=O)N(C)C)c2c1,active: -61.6%
19,COc1ccc(CC(=O)N(Cc2ccccc2)c2ccc(C)cc2)cc1S(=O)(=O)N1CCOCC1,inconclusive: -44.7%
20,CCCN(CC(=O)Nc1ccc(F)c(F)c1F)C(=O)CN1C(=O)NC2(CCCCC2)C1=O,inconclusive: -49.1%
21,CSCC(=O)N1CCCC(CNC(=O)c2ccccc2Cl)C1 (centres undefined),inactive: -0.307%
22,COc1ccc(/C=C/C2=CC(C)(C)NC(=S)N2)cc1,inconclusive: -49.9%
23,Cc1ccc(NC(=S)N/N=C2\CCCCC2C)cc1 (centres undefined),inactive: -3.21%
24,COc1ccc(CCC(=O)N2CCCC(Nc3ccccc3)C2)cc1OC (centres undefined),inconclusive: -43.5%

# Ordered by SMILES length (low to high): some entries from above.
row,SMILES,"activity change, negative = inhibition"
22,COc1ccc(/C=C/C2=CC(C)(C)NC(=S)N2)cc1,inconclusive: -49.9%
9,FC(F)(F)c1ccc(-c2noc(CN3CCCN(C4CCCCC4)CC3)n2)cc1,inactive: 22%
10,CCN(CC)C(=O)c1ccc(NC(=O)CSc2nnnn2-c2cc(OC)ccc2OC)cc1,inconclusive: -54.2%
